The supplement of paper PMC12823440, “Inhibitors supercharge kinase turnover through native proteolytic circuits” (Nature, 2025)
This is one part of the list. Hit calls seldom repeat between salt and free forms of one compound.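 Kinases, fused to nanoluciferase, were expressed in K562 cells; luminescence was measured every 4 h from 2 to 18 h as percent of control (DMSO = 100%, positive control = 0%). A time point is decreased if signal falls significantly (2 sigma). Hits were called by the authors by a rule that is not shown; the count of time points alone does not decide it.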

By UniProt entry, the sequences of proteins in these tests, tags left out. Where a name states a change or a piece, a line headed by the entry shows the natural chain unless it says otherwise.
UniProt Q15208: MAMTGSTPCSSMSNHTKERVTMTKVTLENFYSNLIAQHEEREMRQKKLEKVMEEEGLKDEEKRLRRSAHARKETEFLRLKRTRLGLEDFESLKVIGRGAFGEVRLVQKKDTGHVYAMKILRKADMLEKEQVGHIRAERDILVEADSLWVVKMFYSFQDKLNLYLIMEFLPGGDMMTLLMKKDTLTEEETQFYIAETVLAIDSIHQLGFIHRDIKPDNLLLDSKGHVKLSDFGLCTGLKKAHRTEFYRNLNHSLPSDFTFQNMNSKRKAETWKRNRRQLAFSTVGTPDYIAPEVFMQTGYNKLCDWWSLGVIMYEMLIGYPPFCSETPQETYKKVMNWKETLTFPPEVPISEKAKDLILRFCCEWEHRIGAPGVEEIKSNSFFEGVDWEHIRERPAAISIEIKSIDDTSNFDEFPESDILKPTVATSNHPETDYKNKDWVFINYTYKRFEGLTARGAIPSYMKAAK
UniProt P42680: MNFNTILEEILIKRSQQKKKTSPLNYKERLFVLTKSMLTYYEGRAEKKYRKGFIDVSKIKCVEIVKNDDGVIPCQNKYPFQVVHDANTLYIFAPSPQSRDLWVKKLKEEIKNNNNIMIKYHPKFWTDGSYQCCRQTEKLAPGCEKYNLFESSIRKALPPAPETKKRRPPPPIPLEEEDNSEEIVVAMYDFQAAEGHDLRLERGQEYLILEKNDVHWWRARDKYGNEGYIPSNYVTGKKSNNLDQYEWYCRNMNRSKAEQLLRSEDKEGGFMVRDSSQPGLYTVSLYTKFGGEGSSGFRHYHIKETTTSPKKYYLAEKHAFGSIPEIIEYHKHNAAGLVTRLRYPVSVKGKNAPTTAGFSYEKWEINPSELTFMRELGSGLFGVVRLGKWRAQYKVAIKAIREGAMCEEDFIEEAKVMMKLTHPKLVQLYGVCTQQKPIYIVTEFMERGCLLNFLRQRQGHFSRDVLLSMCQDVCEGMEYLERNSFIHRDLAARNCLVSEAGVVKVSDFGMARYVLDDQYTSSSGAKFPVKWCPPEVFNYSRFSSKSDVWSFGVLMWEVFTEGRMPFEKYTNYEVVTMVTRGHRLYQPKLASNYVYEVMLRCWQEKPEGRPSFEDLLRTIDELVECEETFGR
UniProt P29597: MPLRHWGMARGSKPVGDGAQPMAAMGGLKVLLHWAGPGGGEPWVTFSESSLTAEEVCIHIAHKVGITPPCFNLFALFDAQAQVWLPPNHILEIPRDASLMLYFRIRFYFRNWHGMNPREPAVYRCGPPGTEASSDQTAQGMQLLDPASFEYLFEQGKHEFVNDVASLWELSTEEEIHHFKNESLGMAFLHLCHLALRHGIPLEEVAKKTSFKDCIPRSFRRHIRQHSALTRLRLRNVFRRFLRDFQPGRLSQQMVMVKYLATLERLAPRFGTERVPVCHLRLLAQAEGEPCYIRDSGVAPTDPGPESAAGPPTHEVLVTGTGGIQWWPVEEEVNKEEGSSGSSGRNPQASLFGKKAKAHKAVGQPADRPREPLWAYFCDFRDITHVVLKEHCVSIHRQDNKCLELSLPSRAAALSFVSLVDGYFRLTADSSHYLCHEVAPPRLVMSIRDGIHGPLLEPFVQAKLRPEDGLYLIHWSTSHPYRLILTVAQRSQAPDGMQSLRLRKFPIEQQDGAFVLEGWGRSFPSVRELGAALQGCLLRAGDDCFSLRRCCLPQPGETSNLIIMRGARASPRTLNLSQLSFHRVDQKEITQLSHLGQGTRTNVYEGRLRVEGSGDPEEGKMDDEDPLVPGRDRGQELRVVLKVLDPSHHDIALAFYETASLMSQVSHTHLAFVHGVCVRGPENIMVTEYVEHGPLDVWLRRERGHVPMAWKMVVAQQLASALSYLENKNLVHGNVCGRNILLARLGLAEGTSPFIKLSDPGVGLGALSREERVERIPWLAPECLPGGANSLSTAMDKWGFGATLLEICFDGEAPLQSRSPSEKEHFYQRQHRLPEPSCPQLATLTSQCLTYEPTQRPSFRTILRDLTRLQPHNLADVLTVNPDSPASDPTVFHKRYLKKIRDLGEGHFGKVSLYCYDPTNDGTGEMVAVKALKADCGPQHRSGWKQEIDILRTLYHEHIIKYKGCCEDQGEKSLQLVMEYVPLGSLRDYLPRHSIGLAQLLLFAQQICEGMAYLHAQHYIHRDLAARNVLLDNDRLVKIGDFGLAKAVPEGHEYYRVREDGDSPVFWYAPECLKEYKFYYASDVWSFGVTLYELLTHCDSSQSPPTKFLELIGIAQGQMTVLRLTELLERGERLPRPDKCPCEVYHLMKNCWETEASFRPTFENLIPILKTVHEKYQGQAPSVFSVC
UniProt Q6PHR2: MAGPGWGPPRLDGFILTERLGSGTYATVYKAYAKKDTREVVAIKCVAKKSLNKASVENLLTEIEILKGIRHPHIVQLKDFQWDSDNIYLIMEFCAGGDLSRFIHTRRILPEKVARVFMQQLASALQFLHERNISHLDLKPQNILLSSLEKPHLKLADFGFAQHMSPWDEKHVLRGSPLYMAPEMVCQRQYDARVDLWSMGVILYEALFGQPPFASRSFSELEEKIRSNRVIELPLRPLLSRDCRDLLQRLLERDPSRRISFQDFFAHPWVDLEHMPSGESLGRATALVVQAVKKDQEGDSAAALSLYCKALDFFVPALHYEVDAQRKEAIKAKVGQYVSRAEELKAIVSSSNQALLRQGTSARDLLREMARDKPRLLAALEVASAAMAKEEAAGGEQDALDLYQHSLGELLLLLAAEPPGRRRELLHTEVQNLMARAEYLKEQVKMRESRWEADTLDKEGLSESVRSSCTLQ
UniProt P07947, whole entry, looked up: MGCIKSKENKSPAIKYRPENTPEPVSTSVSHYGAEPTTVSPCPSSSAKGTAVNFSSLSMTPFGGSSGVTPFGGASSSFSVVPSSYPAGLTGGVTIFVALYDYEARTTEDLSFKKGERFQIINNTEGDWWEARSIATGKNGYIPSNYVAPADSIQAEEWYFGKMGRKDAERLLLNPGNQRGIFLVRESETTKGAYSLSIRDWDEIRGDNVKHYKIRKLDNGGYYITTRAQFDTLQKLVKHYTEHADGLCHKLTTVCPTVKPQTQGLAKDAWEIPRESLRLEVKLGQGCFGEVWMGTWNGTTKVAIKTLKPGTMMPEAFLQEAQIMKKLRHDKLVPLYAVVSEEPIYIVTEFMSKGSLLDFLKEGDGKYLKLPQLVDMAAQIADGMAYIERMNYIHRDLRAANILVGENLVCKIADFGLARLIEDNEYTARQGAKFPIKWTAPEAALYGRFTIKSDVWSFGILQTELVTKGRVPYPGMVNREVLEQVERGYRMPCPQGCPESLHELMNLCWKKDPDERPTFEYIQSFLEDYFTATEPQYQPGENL
UniProt P43403: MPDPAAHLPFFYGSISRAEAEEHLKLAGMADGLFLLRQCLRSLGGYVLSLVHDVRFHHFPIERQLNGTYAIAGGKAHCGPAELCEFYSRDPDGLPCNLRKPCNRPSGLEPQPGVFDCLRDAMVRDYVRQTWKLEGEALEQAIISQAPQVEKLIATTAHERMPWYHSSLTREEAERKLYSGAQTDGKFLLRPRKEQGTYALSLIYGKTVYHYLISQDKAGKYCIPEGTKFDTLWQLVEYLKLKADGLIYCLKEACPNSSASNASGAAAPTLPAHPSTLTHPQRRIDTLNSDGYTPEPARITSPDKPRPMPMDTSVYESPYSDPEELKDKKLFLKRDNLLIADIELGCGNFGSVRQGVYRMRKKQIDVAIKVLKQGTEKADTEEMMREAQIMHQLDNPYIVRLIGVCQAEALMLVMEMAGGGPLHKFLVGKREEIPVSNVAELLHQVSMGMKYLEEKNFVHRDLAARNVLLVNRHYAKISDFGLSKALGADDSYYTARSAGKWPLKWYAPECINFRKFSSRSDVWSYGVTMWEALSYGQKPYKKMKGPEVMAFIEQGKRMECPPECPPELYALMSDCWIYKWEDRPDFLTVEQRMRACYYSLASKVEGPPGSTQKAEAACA
UniProt P00519, whole entry: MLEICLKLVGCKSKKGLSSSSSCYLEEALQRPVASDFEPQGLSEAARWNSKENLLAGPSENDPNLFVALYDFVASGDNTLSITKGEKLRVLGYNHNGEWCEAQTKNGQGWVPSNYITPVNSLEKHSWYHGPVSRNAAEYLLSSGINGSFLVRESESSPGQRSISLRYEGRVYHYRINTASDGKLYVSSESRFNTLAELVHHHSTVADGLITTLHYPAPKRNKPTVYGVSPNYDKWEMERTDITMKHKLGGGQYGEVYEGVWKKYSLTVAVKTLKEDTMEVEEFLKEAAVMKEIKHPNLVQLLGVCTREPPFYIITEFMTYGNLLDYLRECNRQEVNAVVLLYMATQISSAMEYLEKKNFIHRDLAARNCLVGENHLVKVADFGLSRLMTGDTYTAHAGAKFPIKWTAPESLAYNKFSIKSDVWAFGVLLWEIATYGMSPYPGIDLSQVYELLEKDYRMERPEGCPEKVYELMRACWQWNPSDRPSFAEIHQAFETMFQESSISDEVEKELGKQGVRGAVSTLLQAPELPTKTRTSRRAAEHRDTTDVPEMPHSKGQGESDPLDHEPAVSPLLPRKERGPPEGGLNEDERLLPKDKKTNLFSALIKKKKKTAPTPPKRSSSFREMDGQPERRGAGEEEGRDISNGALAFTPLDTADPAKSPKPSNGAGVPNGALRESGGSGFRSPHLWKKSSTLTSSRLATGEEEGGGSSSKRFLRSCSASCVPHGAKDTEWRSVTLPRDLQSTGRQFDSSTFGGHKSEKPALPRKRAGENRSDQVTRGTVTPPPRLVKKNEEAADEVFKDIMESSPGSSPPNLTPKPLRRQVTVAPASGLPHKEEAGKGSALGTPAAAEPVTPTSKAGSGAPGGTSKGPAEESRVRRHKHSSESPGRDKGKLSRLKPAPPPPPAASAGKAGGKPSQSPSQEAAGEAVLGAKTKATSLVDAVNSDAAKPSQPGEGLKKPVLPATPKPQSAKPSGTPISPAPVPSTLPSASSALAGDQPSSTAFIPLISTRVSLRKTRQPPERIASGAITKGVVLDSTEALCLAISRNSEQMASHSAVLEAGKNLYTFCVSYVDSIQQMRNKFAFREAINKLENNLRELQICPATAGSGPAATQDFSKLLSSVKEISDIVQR
UniProt P31749: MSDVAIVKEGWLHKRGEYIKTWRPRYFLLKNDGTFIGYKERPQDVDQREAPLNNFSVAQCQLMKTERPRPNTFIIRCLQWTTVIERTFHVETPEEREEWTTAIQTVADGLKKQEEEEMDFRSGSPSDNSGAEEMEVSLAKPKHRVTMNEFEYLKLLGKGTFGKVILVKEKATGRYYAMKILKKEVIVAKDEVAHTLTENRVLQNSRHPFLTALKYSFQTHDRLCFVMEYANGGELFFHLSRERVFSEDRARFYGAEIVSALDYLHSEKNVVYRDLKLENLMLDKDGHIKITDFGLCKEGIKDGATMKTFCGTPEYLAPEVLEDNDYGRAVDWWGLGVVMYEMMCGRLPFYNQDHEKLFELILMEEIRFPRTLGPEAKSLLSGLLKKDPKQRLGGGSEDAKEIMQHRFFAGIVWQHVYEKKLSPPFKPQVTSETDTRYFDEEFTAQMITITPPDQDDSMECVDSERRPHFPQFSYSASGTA

Legend:
Conditions in all cases: K562; 2-18 h
STK38 = STK38 (UniProt Q15208); test: kinase-Nluc reporter destabilization hit call (1 = scored as downregulated) (binary); higher = compound decreases kinase abundance
SYK = SYK (UniProt P43405); test: as above
TEC = TEC (UniProt P42680); test: as above
TYK2 = TYK2 (UniProt P29597); test: as above
ULK3 = ULK3 (UniProt Q6PHR2); test: as above
YES1 = YES1 (UniProt P07947); test: as above
ZAK = ZAK (UniProt Q9NYL2); test: as above
ZAP70 = ZAP70 (UniProt P43403); test: as above
ABL1 = ABL1 (UniProt P00519); test: number of time points (of 5) at which kinase-Nluc abundance scored as decreased, DMSO-normalised (count); higher = more persistent destabilization
AKT1 = AKT1 (UniProt P31749); test: as above

SMILES | kinase-Nluc reporter destabilization hit call (STK38) | kinase-Nluc reporter destabilization hit call (SYK) | kinase-Nluc reporter destabilization hit call (TEC) | kinase-Nluc reporter destabilization hit call (TYK2) | kinase-Nluc reporter destabilization hit call (ULK3) | kinase-Nluc reporter destabilization hit call (YES1) | kinase-Nluc reporter destabilization hit call (ZAK) | kinase-Nluc reporter destabilization hit call (ZAP70) | number of time points (ABL1) | number of time points (AKT1)
O=[N+]([O-])c1ccc(Sc2cccc[n+]2[O-])c2nonc12 (2.5 µM) | inactive: 0 | inactive: 0 | inactive: 0 | inactive: 0 | inactive: 0 | inactive: 0 | inactive: 0 | inactive: 0 | 0 | 0
C[C@@H]1COCCN1c1cc(=O)n2c(n1)N(Cc1cncc(Cl)c1)[C@H](C(F)(F)F)CC2 (10 µM) | inactive: 0 | inactive: 0 | inactive: 0 | inactive: 0 | inactive: 0 | inactive: 0 | inactive: 0 | inactive: 0 | 0 | 0
Cc1ccc(-c2nn(C(C)(C)CNC(=O)c3ccncc3)c3ncnc(N)c23)cc1 (2.5 µM) | inactive: 0 | inactive: 0 | inactive: 0 | inactive: 0 | inactive: 0 | inactive: 0 | inactive: 0 | inactive: 0 | 0 | 0
Cc1cc(C(C)Nc2ccccc2)c2nc(N3CCOCC3)cc(=O)n2c1 (stereo not given) (10 µM) | inactive: 0 | inactive: 0 | inactive: 0 | inactive: 0 | inactive: 0 | inactive: 0 | inactive: 0 | inactive: 0 | 0 | 0
COc1cc2ncnc(Nc3ccc(NC(=O)c4ccccc4)cc3)c2cc1OC [Aurora kinase inhibitor-2] (2.5 µM) | inactive: 0 | inactive: 0 | inactive: 0 | inactive: 0 | inactive: 0 | inactive: 0 | inactive: 0 | inactive: 0 | 0 | 0
c1ccc(-c2oc3ncnc(NC[C@@H]4CCCO4)c3c2-c2ccccc2)cc1 (2.5 µM) | inactive: 0 | inactive: 0 | inactive: 0 | inactive: 0 | inactive: 0 | inactive: 0 | inactive: 0 | inactive: 0 | 0 | 0
CCOC(=O)c1c2c3c(cccc3[nH]c1=O)C(=O)c1ccccc1-2 (10 µM) | inactive: 0 | inactive: 0 | inactive: 0 | inactive: 0 | inactive: 0 | inactive: 0 | inactive: 0 | inactive: 0 | 0 | 0
CC[C@H](C)[C@H](NC(=O)[C@H](CCC(=O)O)NC(=O)[C@H](CCCN=C(N)N)NC(=O)[C@H](CCCN=C(N)N)NC(=O)[C@@H](N)CCCCN)C(=O)N[C@@H](CC(C)C)C(=O)N[C@@H](CO)C(=O)N[C@@H](CCCN=C(N)N)C(=O)N[C@@H](CCCN=C(N)N)C(=O)N1CCC[C@H]1C(=O)N[C@@H](CO)C(=O)N[C@@H](Cc1ccc(O)cc1)C(=O)N[C@@H](CCCN=C(N)N)C(=O)O [CREBtide] (10 µM) | inactive: 0 | inactive: 0 | inactive: 0 | inactive: 0 | inactive: 0 | inactive: 0 | inactive: 0 | inactive: 0 | 0 | 0
C[C@@H]1O[C@@H](OC[C@H]2O[C@@H](Oc3cc(O)c4c(c3)O[C@H](c3ccc(O)cc3)CC4=O)[C@H](O)[C@@H](O)[C@@H]2O)[C@H](O)[C@H](O)[C@H]1O [Narirutin] (10 µM) | inactive: 0 | inactive: 0 | inactive: 0 | inactive: 0 | inactive: 0 | inactive: 0 | inactive: 0 | inactive: 0 | 0 | 0
CC(C)(C)C(=O)N1N=CC[C@H]1c1ccccc1 (10 µM) | inactive: 0 | inactive: 0 | inactive: 0 | inactive: 0 | inactive: 0 | inactive: 0 | inactive: 0 | inactive: 0 | 0 | 0
C=CC(=O)N1CCC(Oc2cc3c(Nc4ccc(Cl)c(Cl)c4F)ncnc3cc2OC)CC1 [Poziotinib] (2.5 µM) | inactive: 0 | inactive: 0 | inactive: 0 | inactive: 0 | inactive: 0 | inactive: 0 | inactive: 0 | inactive: 0 | 0 | 0
CCCNC(=O)c1cn2ncnc(Nc3cc(C(=O)NC4CC4)ccc3C)c2c1C (10 µM) | inactive: 0 | inactive: 0 | inactive: 0 | inactive: 0 | inactive: 0 | inactive: 0 | inactive: 0 | inactive: 0 | 0 | 0
O=C(O)c1ccc(-c2c[nH]c3ncc(-c4ccccc4)cc23)cc1C1CCCC1 (2.5 µM) | inactive: 0 | inactive: 0 | inactive: 0 | inactive: 0 | inactive: 0 | inactive: 0 | inactive: 0 | inactive: 0 | 0 | 0
CCCCCCCC/C=C\CCCCCCCC(=O)NCC(=O)O [N-Oleoyl glycine] (10 µM) | inactive: 0 | inactive: 0 | inactive: 0 | inactive: 0 | inactive: 0 | inactive: 0 | inactive: 0 | inactive: 0 | 0 | 0
C=CC(=O)Nc1cccc(-n2c(=O)cc(C)c3cnc(Nc4ccc(OCCN(C)C)cc4OC)nc32)c1 (10 µM) | inactive: 0 | inactive: 0 | inactive: 0 | inactive: 0 | inactive: 0 | inactive: 0 | inactive: 0 | inactive: 0 | 0 | 0

Three compounds from above, arranged by number of heavy atoms, smallest number first.
SMILES | kinase-Nluc reporter destabilization hit call (STK38) | kinase-Nluc reporter destabilization hit call (SYK) | kinase-Nluc reporter destabilization hit call (TEC) | kinase-Nluc reporter destabilization hit call (TYK2) | kinase-Nluc reporter destabilization hit call (ULK3) | kinase-Nluc reporter destabilization hit call (YES1) | kinase-Nluc reporter destabilization hit call (ZAK) | kinase-Nluc reporter destabilization hit call (ZAP70) | number of time points (ABL1) | number of time points (AKT1)
Cc1cc(C(C)Nc2ccccc2)c2nc(N3CCOCC3)cc(=O)n2c1 (stereo not given) (10 µM) | inactive: 0 | inactive: 0 | inactive: 0 | inactive: 0 | inactive: 0 | inactive: 0 | inactive: 0 | inactive: 0 | 0 | 0
c1ccc(-c2oc3ncnc(NC[C@@H]4CCCO4)c3c2-c2ccccc2)cc1 (2.5 µM) | inactive: 0 | inactive: 0 | inactive: 0 | inactive: 0 | inactive: 0 | inactive: 0 | inactive: 0 | inactive: 0 | 0 | 0
C[C@@H]1COCCN1c1cc(=O)n2c(n1)N(Cc1cncc(Cl)c1)[C@H](C(F)(F)F)CC2 (10 µM) | inactive: 0 | inactive: 0 | inactive: 0 | inactive: 0 | inactive: 0 | inactive: 0 | inactive: 0 | inactive: 0 | 0 | 0
